Laboratory results taken from patent publication US20210380649A1.
These are yes or no findings as the source states them, for the method shown. For some of these results: In cells and extracts the contact can be indirect. Some binding calls cover weakened binding; strength is not graded here. For some of these results: Sequences can lack the tags named with a protein. One block for each binder: values may come before it.

Columns and labels:
[1] = molecular target: T1, recombinant mouse (rm) Wnt3a biotinylated protein (mouse), P27467; assay: ELISA: in-solution binding with biotinylated mouse Wnt3a (100 ng/mL), capture on streptavidin plate, detection with sheep anti-sFRP4 antibody, FIG. 8; settings: remark: other sources report otherwise
[2] = molecular target: T1, recombinant mouse (rm) Wnt3a …; assay: ELISA: in-solution binding with biotinylated mouse Wnt3a (100 ng/mL), capture on streptavidin plate, detection with mouse anti-His antibody, FIG. 8; settings: remark: other sources report otherwise
mouse Wnt1 (mouse) [3] = molecular target: T2, mouse Wnt1 (mouse) (UniProt P04426); assay: co-immunoprecipitation from CHO conditioned media, Western blot
T2 sequence (looked up): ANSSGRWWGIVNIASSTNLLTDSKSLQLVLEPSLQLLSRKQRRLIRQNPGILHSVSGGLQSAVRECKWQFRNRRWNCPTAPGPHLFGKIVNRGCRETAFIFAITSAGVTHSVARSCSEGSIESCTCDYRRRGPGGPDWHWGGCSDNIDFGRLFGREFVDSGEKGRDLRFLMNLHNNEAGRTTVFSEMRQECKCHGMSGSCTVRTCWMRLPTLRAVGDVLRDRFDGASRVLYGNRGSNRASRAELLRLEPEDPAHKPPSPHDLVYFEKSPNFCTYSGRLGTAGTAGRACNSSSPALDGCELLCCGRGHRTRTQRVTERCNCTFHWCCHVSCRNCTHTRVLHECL

mouse Wnt1 (mouse) [4] = molecular target: T2, mouse Wnt1 (mouse); assay: co-immunoprecipitation from CHO conditioned media (IP anti-Wnt1, blot anti-His; IP anti-His, blot anti-Wnt1), FIG. 2A
mouse Wnt2b (mouse) [5] = molecular target: T3, mouse Wnt2b (mouse) (UniProt O70283); assay: co-immunoprecipitation: IP anti-mWnt2b, blot anti-hsFRP1, FIG. 2B
T3 sequence (looked up): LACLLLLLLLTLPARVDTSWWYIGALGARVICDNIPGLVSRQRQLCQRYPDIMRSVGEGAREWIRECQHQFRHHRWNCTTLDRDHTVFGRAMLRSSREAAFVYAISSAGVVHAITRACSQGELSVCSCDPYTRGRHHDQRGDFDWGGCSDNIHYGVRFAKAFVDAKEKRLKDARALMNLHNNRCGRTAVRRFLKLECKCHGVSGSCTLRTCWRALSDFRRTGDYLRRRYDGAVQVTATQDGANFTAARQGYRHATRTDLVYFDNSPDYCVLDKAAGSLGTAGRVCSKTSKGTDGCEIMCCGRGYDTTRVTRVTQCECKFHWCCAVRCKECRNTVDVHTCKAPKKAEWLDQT

mouse Wnt2b (mouse) [6] = molecular target: T3, mouse Wnt2b (mouse); assay: co-immunoprecipitation: IP anti-hsFRP1, blot anti-mWnt2b, FIG. 2C
mouse Wnt2b (mouse) [7] = molecular target: T3, mouse Wnt2b (mouse); assay: co-immunoprecipitation from CHO conditioned media (IP anti-mWnt2b, blot anti-hsFRP1; IP anti-hsFRP1, blot anti-mWnt2b), FIG. 2B and 2C

B2: His tagged-mouse sFRP3, P97401 33-323 (protein, UniProt P97401 33-323, looked up, not shown: small tags and cut ends)
chain: AACEPVRIPLCKSLPWNMTKMPNHLHHSTQANAILAMEQFEGLLGTHCSPDLLFFLCAMYAPICTIDFQHEPIKPCKSVCERARQGCEPILIKYRHSWPESLACDELPVYDRGVCISPEAIVTADGADFPMDSSTGHCRGASSERCKCKPVRATQKTYFRNNYNYVIRAKVKEVKMKCHDVTAVVEVKEILKASLVNIPRDTVNLYTTSGCLCPPLTVNEEYVIMGYEDEERSRLLLVEGSIAEKWKDRLGKKVKRWDMKLRHLGLGKTDASDSTQNQKSGRNSNPRPARS
modifications: here or on the partner: biotinylated (sites not given)
binding [2]: binds

B4: mouse sFRP1 (protein, UniProt Q8C4U3 32-314, looked up)
chain: SEYDYVSFQSDIGSYQSGRFYTKPPQCVDIPVDLRLCHNVGYKKMVLPNLLEHETMAEVKQQASSWVPLLNKNCHMGTQVFLCSLFAPVCLDRPIYPCRWLCEAVRDSCEPVMQFFGFYWPEMLKCDKFPEGDVCIAMTPPNTTEASKPQGTTVCPPCDNELKSEAIIEHLCASEFALRMKIKEVKKENGDKKIVPKKKKPLKLGPIKKKELKRLVLFLKNGADCPCHQLDNLSHNFLIMGRKVKSQYLLTAIHKWDKKNKEFKNFMKRMKNHECPTFQSVFK
binding (mouse Wnt2b (mouse) [5]): binds
binding (mouse Wnt2b (mouse) [6]): binds
binding (mouse Wnt2b (mouse) [7]): binds

Further lines, results first:

binding [1]: binds
B1: mouse sFRP4, Q9Z1N6 19-351 (protein, UniProt Q9Z1N6 19-351, looked up)
chain: VRGAPCEAVRIPMCRHMPWNITRMPNHLHHSTQENAILAIEQYEELVDVNCSSVLRFFLCAMYAPICTLEFLHDPIKPCKSVCQRARDDCEPLMKMYNHSWPESLACDELPVYDRGVCISPEAIVTDLPEDVKWIDITPDMMVQERSFDADCKRLSPDRCKCKKVKPTLATYLSKNYSYVIHAKIKAVQRSGCNEVTTVVDVKEIFKSLSPIPRTQVPLITNSSCQCPHILPHQDVLIMCYEWRSRMMLLENCLVEKWRDQLSRRSIQWEERLQEQQRTIQDKKQIASRTSRTSRSNPPKSKGRPPAPKPASPKKNIKARSAPKKSNLKKSAS
modifications: here or on the partner: biotinylated (sites not given)

binding (mouse Wnt1 (mouse) [3]): binds
binding (mouse Wnt1 (mouse) [4]): binds
B3: mouse sFRP1-His (protein, UniProt Q8C4U3 32-314, looked up, not shown: small tags and cut ends)
chain: B4 chain
